PubChem BioAssay AID1259254, NCATS | 2017

Assay: 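Genome-wide screen for genes that prevent DNA re-replication in cancer cells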 (primary screen)
Cell system: human HCT116 colorectal cancer cells
Reagent: single siRNA against human genes
Timing: 3 days
Measured: 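Nuclei stained with Hoechst and imaged; cell-cycle phase assigned by DNA content; G2 share scaled per plate, non-targeting siRNA 0%, GMNN siRNA 100%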
Reading the numbers: G2 robust z-score: higher = more G2 cells, more excess DNA replication
Call rule: 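An siRNA counts as active if its G2 robust z-score lies at least 5 MADs above the screen median; here such calls match roughly 38% of GMNN control or more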
The deposit covers about 59,000 reagents; this is a part drawn at random. Of all reagents, about 1,550 (2.6%) got an active call. 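G2 share is only a proxy for re-replication; each gene was hit by three separate siRNAs, and active genes were retested.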 Not all columns of the deposit are shown. The record does not give: the amount of reagent.

G2 robust z-score, by gene and reagent
TTC23: SID160748143 0.0945 inactive; SID160748144 1.83 inactive; SID160748145 0.198 inactive
UNK: SID160753308 -0.46 inactive; SID160753309 -0.589 inactive; SID160753311 -0.0777 inactive
OR7C1: SID160738131 1.45 inactive; SID160738132 3.71 inactive; SID160738133 -0.313 inactive
FAM50A: SID160721543 -0.595 inactive; SID160721544 2.46 inactive; SID160721545 -0.631 inactive
TRIO: SID160718344 -0.493 inactive; SID160718345 -0.363 inactive; SID160718346 -0.447 inactive
USF3: SID160761196 2.19 inactive; SID160761197 0.0499 inactive; SID160761198 -0.819 inactive
DHRS4: SID160729467 -0.66 inactive; SID160729468 -0.0456 inactive; SID160729469 0.433 inactive
VSTM2B: SID160764640 1.51 inactive; SID160764641 -0.778 inactive; SID160764642 0.0465 inactive
STAR: SID160717430 1.96 inactive; SID160717431 0.783 inactive; SID160717432 5.22 active
UBE2D3: SID160718527 0.253 inactive; SID160718528 0.603 inactive; SID160718529 -0.516 inactive
CDC42BPG: SID160743800 1.85 inactive; SID160743801 1.99 inactive; SID160743802 -0.266 inactive
CARHSP1: SID160736625 1.74 inactive; SID160736626 0.851 inactive; SID160736627 -0.102 inactive
FXR1: SID160719623 -0.151 inactive; SID160719624 -1.36 inactive; SID160719625 -0.764 inactive

6 entries from above, sorted by “G2 robust z-score”, highest first.
Gene	PubChem SID	G2 robust z-score	Call
VSTM2B	SID160764640	1.51	inactive
DHRS4	SID160729469	0.433	inactive
DHRS4	SID160729468	-0.0456	inactive
DHRS4	SID160729467	-0.66	inactive
VSTM2B	SID160764641	-0.778	inactive
USF3	SID160761198	-0.819	inactive

More results follow.
G2 robust z-score, by gene and reagent
ZNF474: SID160757288 0.982 inactive; SID160757289 -0.805 inactive; SID160757290 -0.862 inactive
CLEC7A: SID160733954 0.597 inactive; SID160747820 2.23 inactive; SID160747821 -0.844 inactive
TP53AIP1: SID160733740 1.21 inactive; SID160747347 1.13 inactive; SID160747348 2.89 inactive
ASB17: SID160732428 0.518 inactive; SID160756593 -0.0887 inactive; SID160756594 -0.596 inactive
STUM: SID160725155 0.304 inactive; SID160765386 2.88 inactive; SID160765387 4.48 inactive
NXPH2: SID160730283 -0.0465 inactive; SID160730284 -0.457 inactive; SID160732322 0.0473 inactive
GC: SID160769819 4.81 inactive; SID160769829 9.87 active; SID160769836 0.126 inactive
APPL2: SID160743201 -0.304 inactive; SID160743202 1.8 inactive; SID160743203 -0.438 inactive
MAGED1: SID160722358 -1.49 inactive; SID160722359 0.312 inactive; SID160722360 0.24 inactive
GPR160: SID160738225 7.43 active; SID160738226 -0.958 inactive; SID160738227 0.0237 inactive
MS4A8: SID160751295 -0.944 inactive; SID160751296 -1.23 inactive; SID160751297 1.96 inactive
COL7A1: SID160746154 0.147 inactive; SID160746165 -0.57 inactive; SID160746175 2.77 inactive
STMN4: SID160735002 -0.982 inactive; SID160750789 0.108 inactive; SID160750790 0.239 inactive
WBP2: SID160732769 0.358 inactive; SID160736564 1.67 inactive; SID160736565 0.372 inactive
KCTD2: SID160736424 0.951 inactive; SID160736425 2.74 inactive; SID160736426 -1.1 inactive
PROZ: SID160720989 2.17 inactive; SID160720990 -1.33 inactive; SID160732106 -0.121 inactive
